{"source": "paper PMC10916352", "about": "“Safety Evaluation of a Prototypical Diazirine-Based Covalent Crosslinker and Molecular Adhesive” (International Journal of Toxicology, 2023)", "tested_on": "EpiDerm Skin Model (human-derived epidermal keratinocytes)", "test": "In vitro skin corrosion test, MTT viability"}
{"smiles": "FC(F)(F)C1(c2ccc(C(c3ccc(C4(C(F)(F)F)N=N4)cc3)(C(F)(F)F)C(F)(F)F)cc2)N=N1", "note": "[BondLynx, 2,2-bis-[4-[3-(trifluoromethyl)-3H-diazirin-3-yl]phenyl]hexafluoropropane]", "values": [{"measurement": "Colour interference, corrected OD570", "setting": "BondLynx added to Milli-Q water", "value": ".0041"}, {"measurement": "Direct MTT reduction", "setting": "mixed with MTT, colour change check", "value": "did not directly reduce MTT"}]}
